Series [1] deals with non-tumorigenic human breast MCF-10A cell line. In words: Cytotoxicity towards non-tumorigenic MCF-10A cells. The conditions noted are these: ratio of IC50 MCF-10A / IC50 HepG2. Type of series: cell-based.
Series [2] in a line: DPPH radical scavenging assay. The conditions noted are these: more potent than standard Ascorbic acid. As to the method:
The antioxidant potential of spirooxindoles 6a–p against DPPH˙ was evaluated as per previously described procedures by Brand-Williams et al.[32]. DPPH solution was prepared by dissolving 0.024 g DPPH in methanol (100 mL). In 96-well plates, × μL sample and 200-x μL DPPH solution were added. The plate was incubated for 30 min at room temperature in the dark, and finally, absorbance was recorded at 517 nm wavelength. Ascorbic acid was used as positive control. The percent radical scavenging potential was calculated for each compound via the following equation: Scavenging effect (%) = {(Absorbance of control − Absorbance of sample)/Absorbance of control} × 100.
The DPPH (2,2-diphenyl-1-picrylhydrazyl) radical scavenging activity assay is considered as one of the most common and simple methods for measuring the antioxidant ability to trap free radicals. […] Substances that have the potential to act as electron donors result in reduction of this DPPH radical to the corresponding DPPH2 disclosing their antioxidant potential. The principle of the method relies upon measuring the absorbance of the odd electrons of DPPH at 517 nm. The absorbance decreases, in the presence of free radical scavengers, proportional to the decrease of the DPPH radical concentration.

The values below come from PMC7144320, “Antitumor properties of certain spirooxindoles towards hepatocellular carcinoma endowed with antioxidant activity” (Journal of Enzyme Inhibition and Medicinal Chemistry, 2020).

SMILES strings stand for the structures.

As for `Cc1ccc(C2=C(C#N)C3(C(=O)Nc4ccc(Br)cc43)c3c(-c4cccs4)nn(-c4ccccc4)c3N2)cc1` (centres unmarked) [Compound 6j], the “Tumour S. I. (MCF-10A/HepG2)” value in series [1] stood at 14.8. Take `Cc1ccc(C2=C(C#N)C3(C(=O)Nc4ccccc43)c3c(-c4cccs4)nn(-c4ccccc4)c3N2)cc1` (centres unmarked) [Compound 6b]: the “Tumour S. I. (MCF-10A/HepG2)” value in series [1] is 5.8.

On to `Cc1ccc(C2=C(C#N)C3(C(=O)Nc4ccc(Cl)cc43)c3c(-c4cccs4)nn(-c4ccccc4)c3N2)cc1` (centres unmarked) [Compound 6f], for which, in series [1], the “Tumour S. I. (MCF-10A/HepG2)” value is listed as 4.9.

As to `N#CC1=C(c2ccccc2)Nc2c(c(-c3cccs3)nn2-c2ccccc2)C12C(=O)Nc1ccc(Br)cc12` (centres unmarked) [Compound 6i], the “Tumour S. I. (MCF-10A/HepG2)” value in series [1] is 12.2. As to `COc1ccc2c(c1)C1(C(=O)N2)C(C#N)=C(c2ccccc2)Nc2c1c(-c1cccs1)nn2-c1ccccc1` (centres unmarked) [Compound 6m], in series [2], the “DPPH scavenging potency relative to Ascorbic acid” value is on record as 1.6 fold. Besides, the “Tumour S. I. (MCF-10A/HepG2)” value in series [1] was 6.1. Turning to `N#CC1=C(c2ccccc2)Nc2c(c(-c3cccs3)nn2-c2ccccc2)C12C(=O)Nc1ccc(Cl)cc12` (centres unmarked) [Compound 6e], the “Tumour S. I. (MCF-10A/HepG2)” value in series [1] came to 8.3. With `N#CC1=C(c2ccccc2)Nc2c(c(-c3cccs3)nn2-c2ccccc2)C12C(=O)Nc1ccccc12` (centres unmarked) [Compound 6a], the “DPPH scavenging potency relative to Ascorbic acid” value in series [2] is reported as 1.6 fold. Besides, in series [1], the “Tumour S. I. (MCF-10A/HepG2)” value is 13.7. As for `COc1ccc(C2=C(C#N)C3(C(=O)Nc4ccc(Br)cc43)c3c(-c4cccs4)nn(-c4ccccc4)c3N2)cc1` (centres unmarked) [Compound 6k], in series [1], the “Tumour S. I. (MCF-10A/HepG2)” value is 10.3. Still for that read-out and setting: the same measure for `COc1ccc(C2=C(C#N)C3(C(=O)Nc4ccccc43)c3c(-c4cccs4)nn(-c4ccccc4)c3N2)cc1` (centres unmarked) [Compound 6c]: 7.4.
